Experimental data from PubChem BioAssay AID256 (DTP/NCI, 2004).
The list does not hold the whole screen: it is rich in T/C values a quarter to a half above the control, in often repeated tests (any T/C) and in doses without a T/C. Further doses and runs are listed elsewhere. T/C is the treated group as % of the vehicle group. Some entries give survivors of the animals treated and no T/C: the source holds a T/C of zero for them, seemingly a mark for toxic or unscored doses. Some doses without a T/C left all or most animals alive at the check, yet need not have been tolerated: survival well below the control is almost never listed, so the zero probably covers shortened survival too. Counts of survivors are from the toxicity check (mostly the fifth day) where no day follows; animals may have died later. Schedules are NCI's codes, read here as Q, the interval in days (D) or hours (H), X, the number of doses. Some entries were tested several times; the values are given in rising order. For survival time, this PubChem deposit counts one and a half times the control or more as active, and values a quarter to a half above the control carry no call in these data; other NCI protocols may use other cut-offs.

Tested on: CD2F1 mice, L1210 leukemia ip, survival T/C
Test: NCI In Vivo Anticancer Drug Screen. Data for tumor model L1210 Leukemia (intraperitoneal) in CD2F1 (CDF1) mice
Details: higher T/C = longer survival
Method in brief: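 Activity against a transplanted murine tumor was judged by comparing the compound group with a vehicle group. The outcome in the treated animals was divided by that in the controls.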

[1] = T/C endpoint: mean survival time, dose: 200.0 mg/kg/injection, schedule: Q04DX003 (ip), vehicle: saline sonified
[2] = T/C endpoint: mean survival time, dose: 400.0 mg/kg/injection, schedule: Q04DX003 (ip), vehicle: saline sonified
[3] = T/C endpoint: mean survival time, dose: 400.0 mg/kg/injection, schedule: Q01DX009 (ip), vehicle: saline with Tween-80
[4] = T/C endpoint: mean survival time, dose: 100.0 mg/kg/injection, schedule: Q04DX003 (ip), vehicle: saline with Tween-80
[5] = T/C endpoint: mean survival time, dose: 200.0 mg/kg/injection, schedule: Q04DX003 (ip), vehicle: saline with Tween-80
[6] = T/C endpoint: mean survival time, dose: 400.0 mg/kg/injection, schedule: Q04DX003 (ip), vehicle: saline with Tween-80
[7] = T/C endpoint: mean survival time, dose: 300.0 mg/kg/injection, schedule: Q01DX001 (ip), vehicle: saline

CC1(C)N=C(N)N=C(N)N1c1cccc(CCCCc2cccc(S(=O)(=O)F)c2)c1
survivor count (T/C endpoint: mean survival time, dose: 100.0 mg/kg/injection, schedule: Q04DX003 (ip), vehicle: saline sonified): 1 of 6 | survivor count [1]: 5 of 6 | survivor count [2]: 0 of 6

NCCCNCCSP(=O)(O)O
survivor count [3]: 6 of 6

CCCCOC(=O)CCC(NC(=O)c1ccc(N(C)Cc2cnc3nc(N)nc(N)c3n2)cc1)C(=O)O (stereo not given)
T/C (T/C endpoint: mean survival time, dose: 0.75 mg/kg/injection, schedule: Q01DX009 (ip), vehicle: water): 141 % of control | survivor count (T/C endpoint: mean survival time, dose: 12.0 mg/kg/injection, schedule: Q01DX009 (ip), vehicle: water): 5 of 6

C[n+]1ccc(C#N)c2ccccc21
survivor count (T/C endpoint: mean survival time, dose: 100.0 mg/kg/injection, schedule: Q04DX003 (ip), vehicle: acetone): 1 of 6 | survivor count (T/C endpoint: mean survival time, dose: 200.0 mg/kg/injection, schedule: Q04DX003 (ip), vehicle: acetone): 1 of 6 | survivor count (T/C endpoint: mean survival time, dose: 400.0 mg/kg/injection, schedule: Q04DX003 (ip), vehicle: acetone): 0 of 6

CC(=O)NC1CC(n2cnc3c(=O)[nH]c(N)nc32)OC1C(C)O (stereo not given)
survivor count (T/C endpoint: median survival time, dose: 200.0 mg/kg/injection, schedule: Q01DX005 (ip), vehicle: distilled water + Tween-80): 1 of 6

Cc1cccc(C(=O)OCCBr)c1
survivor count (T/C endpoint: mean survival time, dose: 150.0 mg/kg/injection, schedule: Q01DX009 (ip), vehicle: saline with Tween-80): 3 of 6 | survivor count (T/C endpoint: mean survival time, dose: 300.0 mg/kg/injection, schedule: Q01DX009 (ip), vehicle: saline with Tween-80): 0 of 6

CCC1=C[C@H]2CN(CCc3c([nH]c4ccccc34)[C@@](C(=O)OC)(c3cc4c(cc3OC)N(C)[C@H]3[C@@](O)(C(=O)NC)[C@H](OC(C)=O)[C@]5(CC)C=CCN6CC[C@]43[C@@H]65)C2)C1
T/C (T/C endpoint: mean survival time, dose: 0.12 mg/kg/injection, schedule: Q01DX009 (ip), vehicle: water): 132 % of control | T/C (T/C endpoint: mean survival time, dose: 0.25 mg/kg/injection, schedule: Q01DX009 (ip), vehicle: water): 125 % of control | T/C (T/C endpoint: mean survival time, dose: 0.5 mg/kg/injection, schedule: Q01DX009 (ip), vehicle: water): 127 % of control | survivor count (T/C endpoint: mean survival time, dose: 1.0 mg/kg/injection, schedule: Q01DX009 (ip), vehicle: water): 6 of 6 | survivor count (T/C endpoint: mean survival time, dose: 2.0 mg/kg/injection, schedule: Q01DX009 (ip), vehicle: water): 5 of 6

CCOC(=O)C(=O)C(C#N)c1ccccc1 (stereo not given)
survivor count (T/C endpoint: mean survival time, dose: 200.0 mg/kg/injection, schedule: Q01DX001 (ip), vehicle: Klucel (hydroxypropylcellulose) (HPC)): 1 of 3 | survivor count (T/C endpoint: mean survival time, dose: 400.0 mg/kg/injection, schedule: Q01DX001 (ip), vehicle: Klucel (hydroxypropylcellulose) (HPC)): 0 of 3

Cc1cc(O)c2c(c1)C(=O)C13C(=C2O)C(=O)C2C(O)C1C1C(O)C3C(=O)C3=C(O)c4c(O)cc(C)cc4C(=O)C321 (stereo not given)
survivor count [4]: 6 of 6 | survivor count [5]: 2 of 6 | survivor count [6]: 0 of 6

CN(C)C(=S)Oc1ccc(S(=O)(=O)F)c(Cl)c1Cl
survivor count (T/C endpoint: mean survival time, dose: 200.0 mg/kg/injection, schedule: Q04DX002 (ip), vehicle: saline with Tween-80): 3 of 3

CC(C)[S-].CC(C)[S-].[Pt+2].c1ccc([PH+](c2ccccc2)c2ccccc2)cc1.c1ccc([PH+](c2ccccc2)c2ccccc2)cc1
survivor count (T/C endpoint: mean survival time, dose: 25.0 mg/kg/injection, schedule: Q04DX003 (sc), vehicle: distilled water + Tween-80): 6 of 6 | survivor count (T/C endpoint: mean survival time, dose: 100.0 mg/kg/injection, schedule: Q04DX003 (sc), vehicle: distilled water + Tween-80): 6 of 6

Cc1cc(NS(=O)(=O)c2ccc(N=Nc3cc(N=Nc4ccc(S(=O)(=O)Nc5cc(C)nc(C)n5)cc4)c4c(NC(=O)C(Cl)Cl)cccc4c3OC(=O)C(Cl)Cl)cc2)nc(C)n1 (tested in a mixture with another compound)
survivor count (T/C endpoint: median survival time, dose: 400.0 mg/kg/injection, schedule: Q01DX009 (ip), vehicle: suspension in saline): 5 of 6

O=S(=O)(O)SCCN1CCCCC1
survivor count [4]: 5 of 6 | survivor count [5]: 0 of 6 | survivor count [6]: 0 of 6

OC(c1ccccc1)C(O)c1ccccc1 (stereo not given)
survivor count (T/C endpoint: mean survival time, dose: 75.0 mg/kg/injection, schedule: Q01DX001 (ip), vehicle: saline): 2 of 6 | survivor count (T/C endpoint: mean survival time, dose: 150.0 mg/kg/injection, schedule: Q01DX001 (ip), vehicle: saline): 0 of 6 | survivor count [7]: 0 of 6

CC1CCCN(CCSSCCN2CCCC(C)C2)C1 (stereo not given)
survivor count [4]: 5 of 6 | survivor count [5]: 0 of 6 | survivor count [6]: 0 of 6

COC1=C(C)C(=O)C2=C(C1=O)C1C3CC4=C(C(=O)C(OC)=C(C)C4=O)C(CNC(=O)C(C)=O)N3C(C#N)C(C2)N1C (stereo not given)
survivor count (T/C endpoint: median survival time, dose: 2.0 mg/kg/injection, schedule: Q01DX009 (ip), vehicle: Klucel (hydroxypropylcellulose) (HPC)): 4 of 6 | survivor count (T/C endpoint: median survival time, dose: 4.0 mg/kg/injection, schedule: Q01DX009 (ip), vehicle: Klucel (hydroxypropylcellulose) (HPC)): 0 of 6 | survivor count (T/C endpoint: median survival time, dose: 2000.0 micrograms/kg/injection, schedule: Q01DX009 (ip), vehicle: Klucel (hydroxypropylcellulose) (HPC)): 0 of 6

Cc1c2ccccc2cc2cccc[n+]12
survivor count (T/C endpoint: mean survival time, dose: 40.0 mg/kg/injection, schedule: Q01DX009 (ip), vehicle: saline): 1 of 6 and 5 of 6 | survivor count (T/C endpoint: mean survival time, dose: 80.0 mg/kg/injection, schedule: Q01DX009 (ip), vehicle: saline): 0 of 6

CN(C)C(=N)N(C)C
survivor count [1]: 2 of 6 | survivor count [2]: 0 of 6

COC(CNC1=C(C)C(=O)C2=C(C1=O)[C@H](COC(N)=O)[C@]1(OC)[C@@H]3N[C@@H]3CN21)OC
T/C (T/C endpoint: mean survival time, dose: 6.0 mg/kg/injection, schedule: Q01DX001 (ip), vehicle: water): 125 % of control | T/C (T/C endpoint: mean survival time, dose: 12.0 mg/kg/injection, schedule: Q01DX001 (ip), vehicle: water, evaluated on day 30): 142 % of control | T/C (T/C endpoint: mean survival time, dose: 12.0 mg/kg/injection, schedule: Q01DX001 (ip), vehicle: water, evaluated on day 35): 128 % of control

CSc1nnc([N+](=O)[O-])s1
survivor count (T/C endpoint: mean survival time, dose: 100.0 mg/kg/injection, schedule: Q04DX003 (ip), vehicle: Klucel (hydroxypropylcellulose) (HPC)): 0 of 6 | survivor count (T/C endpoint: mean survival time, dose: 200.0 mg/kg/injection, schedule: Q04DX003 (ip), vehicle: Klucel (hydroxypropylcellulose) (HPC)): 1 of 6 | survivor count (T/C endpoint: mean survival time, dose: 400.0 mg/kg/injection, schedule: Q04DX003 (ip), vehicle: Klucel (hydroxypropylcellulose) (HPC)): 4 of 6

CCC(Cc1ccccc1Br)C1=NC(C)(C)CO1 (stereo not given)
survivor count (T/C endpoint: mean survival time, dose: 400.0 mg/kg/injection, schedule: Q01DX001 (ip), vehicle: acetone): 2 of 6

CCCCCCCCCCCCOCC[N+](C/C=C/c1ccccc1)(CCO)CCO
survivor count [4]: 0 of 6 | survivor count [5]: 0 of 6 | survivor count [6]: 0 of 6

O=[n+]1ccn([O-])c2ccccc21
survivor count (T/C endpoint: mean survival time, dose: 400.0 mg/kg/injection, schedule: Q04DX002 (ip), vehicle: saline with Tween-80): 1 of 3

C=COC(=O)NC(CC(C)C)C(=O)O (stereo not given)
survivor count [7]: 0 of 6

COc1ccc(NC(=O)Oc2cccnc2)c(Cl)c1
survivor count (T/C endpoint: mean survival time, dose: 200.0 mg/kg/injection, schedule: Q01DX009 (ip), vehicle: Klucel (hydroxypropylcellulose) (HPC)): 0 of 3

Cc1ccc(S(=O)(=O)SC(Cl)(Cl)Cl)cc1
survivor count (T/C endpoint: mean survival time, dose: 50.0 mg/kg/injection, schedule: Q01DX009 (ip), vehicle: saline): 3 of 3

C[n+]1cccc(C(=S)[S-])c1
survivor count (T/C endpoint: mean survival time, dose: 100.0 mg/kg/injection, schedule: Q01DX009 (ip), vehicle: saline with Tween-80): 6 of 6 | survivor count [5]: 2 of 6 | survivor count [6]: 2 of 6

O=[N+]([O-])c1cc2c(c([N+](=O)[O-])c1)OCOC2
survivor count [3]: 0 of 6
